Reference: patent US10722517B2, “Compositions and methods for treatment of glioma” (MEMORIAL SLOAN KETTERING CANCER CENTER, priority 2015, dated 2020)
For at least one compound, name, drawing or mass did not settle the structure.

System: 74Reb and PDGC23 cells
Assay: MTT dose response to IGF-1R inhibitors, rebound versus naive PDG cell line
Format: cell-based, mouse
Conditions: early-passage rebound vs treatment-naive line

SMILES: Nc1ncnc2c1c(-c1cccc(OCc3ccccc3)c1)cn2[C@H]1C[C@@H](CN2CCC2)C1 [AEW541]
- sensitivity of 74Reb compared to PDGC23 (MTT): higher sensitivity
